In patent publication US20230232831A1, “MONOTERPENOID AND PHENYLPROPANOID CARBONATE ESTERS AND METHODS OF THEIR MAKING AND USE AS REPELLENTS” (IOWA STATE UNIVERSITY RESEARCH FOUNDATION, INC., priority 2020, published 2023):
Some entries share one result that the patent states for a list of compounds. For at least one compound, name, drawing or mass did not settle the structure.

Test system: Culex pipiens
Assay: Short-term spatial repellency, static air chamber
Assay type: in vivo
Conditions: 1 mL of 0.5% w/v on filter paper; after 90 min
Experimental: FIG. 4 is a graph showing the repellency observed when 1 mL of a 0.5% solution of each compound was applied to a filter paper, dried for 15 minutes, and placed at the treated end of the repellency chamber. FIG. 6 is a graph showing repellency of various compounds against the mosquito species Culex pipiens observed when 1 mL of a 0.5% solution of each compound was applied to a filter paper, dried for 15 minutes, and placed at the treated end of the repellency chamber. The static air chamber used for the repellency assay has been described previously (Klimavicz et al., “Monoterpenoid Isovalerate Esters as Long-lasting Spatial Mosquito Repellents,” In Advances in the Biorational Control of Medicaland Veterinary Pests, American Chemical Society: 2018; Vol. 1289, pp 205-217; Peterson et al., “Identification of Components of Osage Orange Fruit (Maclura pomifera) and Their Repellency to German Cockroaches,” J. Essent. Oil Res. 14:233-236 (2002), which are hereby incorporated by reference in their entirety). For each assay run, a 90-mm Whatman No. 1 filter paper was treated with 1 mL acetone solution containing 0.5% w/v of a carbonate ester. The filter paper was supported upon several pins during the addition of the acetone solution to diminish wicking of the solution away from the filter paper, and the solution was added over approximately thirty seconds to allow acetone to evaporate during the addition to prevent dripping. After the addition of the solution was complete, remaining acetone was permitted to evaporate for […] before testing. A 600-mm-long clear glass cylinder with an inner diameter of 85 mm and a single hole (20 mm diameter) halfway along the side of the cylinder was used for the repellency chamber. One end of the chamber was capped with a glass petri dish (inner diameter 90 mm) containing an untreated 90-mm Whatman No. 1 filter paper, while the other end was likewise covered with a similar petri dish containing the treated filter paper. Immediately after capping both ends of the chamber, 20 non-blood-fed female Culex pipiens mosquitoes were anesthetized with carbon dioxide, and placed into the repellency chamber through the hole in the side of the cylinder via a funnel. The hole was sealed, and the number of mosquitoes on the treated and untreated halves were recorded at 15, 30, 60, 90, 120, and 150 minutes after introduction of the mosquitoes to the chamber. All statistical analysis was performed in R. To determine repellency of a given compound, the number of repelled mosquitoes and the total number of mosquitos the chamber for each trial at a given time point were fit to a beta-binomial distribution to account for overdispersion in the estimated repellency. Because percentage repellency is bound between -100% (completely attracting) and 100% (completely repelling), percentage repellency shown with error bars representing 50% confidence intervals determined from a non-chance-corrected beta-binomial fit to the data, using an inverse link function equal to the psychometric function for the duo-trio test. Statistical significance was determined by nonoverlap of these confidence intervals. Estimates of the proportion of mosquitoes repelled in the chamber was then transformed to percentage repellency, which is expressed as […]

| Compound | C. pipiens repelled after the 90-minute time point [%] |
| --- | --- |
| CCOC(=O)OCCC(C)CCC=C(C)C (stereo not drawn) [Compound 1a, Citronellyl ethyl carbonate] | ≥ 90 |
| CCOC(=O)Oc1cc(C)ccc1C(C)C [Compound 2a, Ethyl thymyl carbonate] | ≥ 90 |
| C=C(C)C1CCC(C)CC1OC(=O)OCC (stereo not drawn) [Compound 3a, Ethyl isopulegyl carbonate] | ≥ 90 |
| CCOC(=O)OC/C=C(\C)CCC=C(C)C [Compound 4a, Ethyl geranyl carbonate] | ≥ 90 |
| C=C(C)C1CC=C(COC(=O)OCC)CC1 (stereo not drawn) [Compound 6a, Ethyl perillyl carbonate] | ≥ 90 |
| Isobutyl thymyl carbonate [Compound 2d] | ≥ 90 |
